PubChem BioAssay AID504774 – Drosophila RNAi Screening Center | 2011

- Aim: 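Knock-downs that shift viability of MMS-exposed cells relative to untreated ones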 (primary screen)
- System: Drosophila Kc167 cells
- Reagent: long dsRNA against Drosophila genes, about 0.25 µg dsRNA per well
- Time to read-out: about 6 days: 3 days knock-down, then 3 days with or without MMS
- Conditions: methyl methanesulphonate 0.004% (w/v) for 3 days after knock-down
- Read-out: 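ATP-dependent luminescence as a measure of live cells in MMS-exposed wells, quantile normalised within each plate, with replicate values also given as a mean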
- Scale: mean viability with MMS and viability with MMS: higher = more surviving cells after MMS
In all, the deposit lists about 23,000 reagents; below is an unselected part of those with a known target gene and a result. 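Values are quantile-normalised luminescence on an arbitrary scale; higher means more cells surviving MMS.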 Reagents against one gene are numbered here.

The opening 2 records as a preview:
target	reagent no.	mean viability with MMS	viability with MMS, replicate 1	viability with MMS, replicate 2
MED1 (Mediator complex subunit 1)	1	3.28e6	3.73e6	3.71e6
fax (failed axon connections)	1	3.42e6	3.89e6	3.84e6

The list itself, from the start:
target	reagent no.	mean viability with MMS	viability with MMS, replicate 1	viability with MMS, replicate 2
MED1 (Mediator complex subunit 1)	1	3.28e6	3.73e6	3.71e6
fax (failed axon connections)	1	3.42e6	3.89e6	3.84e6
CG32099	1	3.63e6	4.17e6	4.04e6
imd (immune deficiency)	1	3.47e6	3.92e6	3.94e6
CG7133	1	3.54e6	3.99e6	4.03e6
CG1309	1	3.60e6	4.10e6	4.07e6
CG7518	1	3.48e6	3.91e6	3.95e6
CG5550	1	3.43e6	3.87e6	3.88e6
CG8774	1	3.37e6	3.87e6	3.74e6
Cmpk (Cytidine/uridine monophosphate kinase 1)	1	3.63e6	4.11e6	4.10e6
Srp54 (Splicing regulatory protein 54)	1	3.00e6	3.29e6	3.47e6
Poxm (Pox meso)	1	3.64e6	4.30e6	4.19e6
Poxm (Pox meso)	2	3.56e6	4.06e6	4.01e6
CG5446	1	3.66e6	4.02e6	4.24e6
CG10359	1	3.55e6	4.07e6	4.00e6
scw (screw)	1	3.42e6	3.87e6	3.85e6
scw (screw)	2	3.55e6	4.04e6	4.01e6
Gr61a (Gustatory receptor 61a)	1	3.51e6	3.93e6	4.02e6
Ca-alpha1T (Ca[2+]-channel protein alpha[[1]] subunit T)	1	3.41e6	3.87e6	3.88e6
Ca-alpha1T (Ca[2+]-channel protein alpha[[1]] subunit T)	2	3.51e6	3.98e6	3.99e6
Ca-alpha1T (Ca[2+]-channel protein alpha[[1]] subunit T)	3	3.40e6	3.87e6	3.84e6
Ca-alpha1T (Ca[2+]-channel protein alpha[[1]] subunit T)	4	3.45e6	3.97e6	3.85e6
Ca-alpha1T (Ca[2+]-channel protein alpha[[1]] subunit T)	5	3.45e6	3.97e6	3.89e6
CG33292 (retired record)	1	3.65e6	4.08e6	4.13e6
udt (undicht)	1	3.61e6	4.23e6	3.96e6
CG10919	1	3.57e6	3.95e6	4.15e6
CG31674	1	3.51e6	3.93e6	4.02e6
CG8369	1	3.51e6	3.97e6	4.01e6
CG42360	1	3.43e6	3.91e6	3.84e6
t-Grip91 (testis-specific gamma-tubulin ring protein 91)	1	3.59e6	4.05e6	4.06e6
Aatf (Apoptosis antagonizing transcription factor)	1	3.50e6	3.84e6	4.11e6
CG8891	1	3.62e6	4.04e6	4.13e6
TTLL4A (Tubulin tyrosine ligase-like 4A)	1	3.52e6	3.91e6	4.08e6
CG31231	1	3.45e6	3.88e6	3.95e6
CG18213	1	3.67e6	4.16e6	4.18e6
CCDC53 (Coiled-coil domain containing 53)	1	3.67e6	4.27e6	4.05e6
CG1317	1	3.51e6	3.98e6	3.99e6
CG11839	1	3.63e6	4.01e6	4.22e6
CG32639	1	3.25e6	3.75e6	3.61e6
Xpc (Xeroderma pigmentosum, complementation group C)	1	3.40e6	4.02e6	3.72e6
pippin	1	3.38e6	3.77e6	3.67e6
maca	1	3.42e6	3.88e6	3.85e6
Lsd-2 (Lipid storage droplet-2)	1	3.64e6	3.99e6	4.24e6
CG13409	1	3.47e6	3.96e6	3.94e6
rb (ruby)	1	3.86e6	4.45e6	4.39e6
Tom (Twin of m4)	1	3.56e6	4.07e6	3.99e6
